We go through ten molecules from article PMC4371837.

The chains behind the UniProt entries cited, without tags or fusion partners.
UniProt Q8VIG1: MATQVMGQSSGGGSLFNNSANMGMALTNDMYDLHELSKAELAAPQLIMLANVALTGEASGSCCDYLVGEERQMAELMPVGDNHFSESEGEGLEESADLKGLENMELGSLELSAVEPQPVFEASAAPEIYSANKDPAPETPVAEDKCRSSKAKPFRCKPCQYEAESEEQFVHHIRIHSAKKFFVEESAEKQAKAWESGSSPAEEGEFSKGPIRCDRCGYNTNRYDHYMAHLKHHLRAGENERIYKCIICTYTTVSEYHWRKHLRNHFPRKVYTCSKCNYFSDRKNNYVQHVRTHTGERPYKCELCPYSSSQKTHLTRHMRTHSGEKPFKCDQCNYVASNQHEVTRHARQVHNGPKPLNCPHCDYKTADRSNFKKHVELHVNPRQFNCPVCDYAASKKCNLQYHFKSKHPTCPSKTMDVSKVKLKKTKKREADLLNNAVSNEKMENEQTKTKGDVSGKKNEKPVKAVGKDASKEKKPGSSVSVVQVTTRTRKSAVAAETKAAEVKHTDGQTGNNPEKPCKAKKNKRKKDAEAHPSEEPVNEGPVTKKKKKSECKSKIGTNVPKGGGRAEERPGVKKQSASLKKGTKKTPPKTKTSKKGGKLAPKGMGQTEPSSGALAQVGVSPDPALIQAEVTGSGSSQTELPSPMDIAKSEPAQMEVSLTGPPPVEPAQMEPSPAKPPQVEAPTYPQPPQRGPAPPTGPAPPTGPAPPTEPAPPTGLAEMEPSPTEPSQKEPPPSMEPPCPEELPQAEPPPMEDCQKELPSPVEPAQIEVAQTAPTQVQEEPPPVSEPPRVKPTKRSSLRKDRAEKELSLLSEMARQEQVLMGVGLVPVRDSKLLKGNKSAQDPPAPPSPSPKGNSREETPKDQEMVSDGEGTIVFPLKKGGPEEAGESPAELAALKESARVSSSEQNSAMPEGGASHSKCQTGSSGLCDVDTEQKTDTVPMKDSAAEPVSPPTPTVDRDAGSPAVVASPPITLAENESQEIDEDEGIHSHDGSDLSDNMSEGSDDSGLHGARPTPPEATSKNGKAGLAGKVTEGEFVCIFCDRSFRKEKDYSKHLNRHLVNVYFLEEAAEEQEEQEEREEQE

This experiment concerns the target Flag-BioT-mREST (mouse REST tagged with a biotin acceptor sequence) (mouse) (UniProt Q8VIG1). As to the kind of experiment: affinity purification with mass spectrometry; biotin-tagged REST captured on streptavidin M-280 magnetic beads from cleared whole-cell lysate of mouse ESCs (clone #60), 4°C, 3 hr, 50 mM Tris-Cl pH 7.5, 150 mM NaCl, 0.5% Triton X-100, 0.5 mM EDTA, 10% glycerol; MudPIT on three independent purifications; parental BirA-J1 cells as control.

These are yes or no findings as the source states them, for the method shown. In cells and extracts the contact can be indirect. A yes stands for co-enrichment or nearness to the bait. Other partners may have been found.

B1: Bxdc2 (protein, UniProt Q9DCA5 1-353)
chain: MAATKRKRRGGLEVQAKKPKRSSKDAGQPAKQADVAKEAEEENRDRIPGPVCKGKWKNKERILIFSSRGINFRTRHLMQDLRMLMPHSKADTKMDRKDKLFVINEVCEMKNCNKCIYFEAKKKQDLYMWLSNSPHGPSAKFLVQNIHTLAELKMTGNCLKGSRPLLSFDPAFDDLPHYALLKEFLIQIFSTPRYHPKSQPFVDHVFTFTILDNRIWFRNFQIIEEDAALVEIGPRFVLNLIKIFQGSFGGPTLYENPHYQSPNMHRRVIRSITAAKYRERQQVKDVQKLRKKEPKTILPHDPTADVFVIPAEEKPVEIQWVKPEPKVDLKARKRRIYKRHRKLQQKMSRGSAK
Take B1: the binding entry is listed as “binds”.

B2: Cdyl (protein, UniProt Q9WTK2 1-593)
chain: MGIGNSQPNSQEAQLCTLPEKAEQPTDDNTCQQNNVVPATVSEPDQASPAIQDAETQVESIVDKRKNKKGKTEYLVRWKGYDSEDDTWEPEQHLVNCEEYIHDFNRRHNERQKEGSLARASRASPSNARKQISRSTHSTLSKTNSKALVVGKDHESKSSQLLAASQKFRKNPAPSLANRKNMDLAKSGIKILVPKSPVKGRTSVDGFQGESPEKLDPVDQGAEDTVAPEVTAEKPTGALLGPGAERARMGSRPRIHPLVPQVSGPVTAAMATGLAVNGKGTSPFMDALAANGTVTIQTSVTGVTAGKRKFIDDRRDQPFDKRLRFSVRQTESAYRYRDIVVRKQDGFTHILLSTKSSENNSLNPEVMKEVQSALSTAAADDSKLVLLSAVGSVFCCGLDFIYFIRRLTDDRKRESTKMADAIRNFVNTFIQFKKPIIVAVNGPAIGLGASILPLCDVVWANEKAWFQTPYTTFGQSPDGCSTVMFPKIMGGASANEMLFSGRKLTAQEACGKGLVSQVFWPGTFTQEVMVRIKELASCNPVVLEESKALVRCNMKMELEQANERECEVLKKIWGSAQGMDSMLKYLQRKIDEF
Regarding B2, the binding result was “binds”.

B3: Lin28A (protein, UniProt Q8K3Y3 1-209)
chain: MGSVSNQQFAGGCAKAAEKAPEEAPPDAARAADEPQLLHGAGICKWFNVRMGFGFLSMTARAGVALDPPVDVFVHQSKLHMEGFRSLKEGEAVEFTFKKSAKGLESIRVTGPGGVFCIGSERRPKGKNMQKRRSKGDRCYNCGGLDHHAKECKLPPQPKKCHFCQSINHMVASCPLKAQQGPSSQGKPAYFREEEEEIHSPALLPEAQN
As for B3, the binding result is “binds”.

B4: Btrc (protein, UniProt Q3ULA2 1-605)
chain: MDPAEAVLQEKALKFMCSMPRSLWLGCSSLADSMPSLRCLYNPGTGALTAFQNSSEREDCNNGEPPRKIIPEKNSLRQTYNSCARLCINQETVCLTSTAMKTENCVAKAKLANGTSSMIVPKQRKLSASYEKEKELCVKYFEQWSESDQVEFVEHLISQMCHYQHGHINSYLKPMLQRDFITALPARGLDHIAENILSYLDAKSLCAAELVCKEWYRVTSDGMLWKKLIERMVRTDSLWRGLAERRGWGQYLFKNKPPDENAPPNSFYRALYPKIIQDIETIESNWRCGRHSLQRIHCRSETSKGVYCLQYDDQKIVSGLRDNTIKIWDKSTLECKRILTGHTGSVLCLQYDERVIITGSSDSTVRVWDVNAGEMLNTLIHHCEAVLHLRFNNGMMVTCSKDRSIAVWDMASPTDITLRRVLVGHRAAVNVVDFDDKYIVSASGDRTIKVWNTSTCEFVRTLNGHKRGIACLQYRDRLVVSGSSDNTIRLWDIECGACLRVLEGHEELVRCIRFDNKRIVSGAYDGKIKVWDLMAALDPRAPAGTLCLRTLVEHSGRVFRLQFDEFQIVSSSHDDTILIWDFLNDPAAHAEPPRSPSRTYTYISR
Consider B4, for which the binding entry is reported as “binds”.

B5: Fbxwi 1 (protein, UniProt Q5SRY7 1-542)
chain: MEPDSVIEDKTIELMCSVPRSLWLGCANLVESMCALSCLQSMPSVRCLQISNGTSSVIVSRKRPSEGNYQKEKDLCIKYFDQWSESDQVEFVEHLISRMCHYQHGHINSYLKPMLQRDFITALPEQGLDHIAENILSYLDARSLCAAELVCKEWQRVISEGMLWKKLIERMVRTDPLWKGLSERRGWDQYLFKNRPTDGPPNSFYRSLYPKIIQDIETIESNWRCGRHNLQRIQCRSENSKGVYCLQYDDDKIISGLRDNSIKIWDKSSLECLKVLTGHTGSVLCLQYDERVIVTGSSDSTVRVWDVNTGEVLNTLIHHNEAVLHLRFSNGLMVTCSKDRSIAVWDMASATDITLRRVLVGHRAAVNVVDFDDKYIVSASGDRTIKVWSTSTCEFVRTLNGHKRGIACLQYRDRLVVSGSSDNTIRLWDIECGACLRVLEGHEELVRCIRFDNKRIVSGAYDGKIKVWDLQAALDPRAPASTLCLRTLVEHSGRVFRLQFDEFQIISSSHDDTILIWDFLNVPPSAQNETRSPSRTYTYISR
As for B5, the binding entry is “binds”.

B6: Trim71 (protein, UniProt Q1PSW8 1-855)
chain: MASFPETDFQICLLCKEMCGSPAPLSSNSSASSSSSQTSTSSAGGGGPGAAARRLHVLPCLHAFCRPCLEAHRLPAPGGAGPAEALKLRCPVCDQKVVLAEAAGMDALPSSAFLLSNLLDAVVATAEEPPPKNGRAGGGPGGAGGHSNHRHHAHHPAQRAAAPAPQPPPGPAASPGSLLMRRPHGCSSCDEGNAASSRCLDCQEHLCDNCVRAHQRVRLTKDHYIERGPPGPAAASAAQQLGLGPPFAGAPFSILSVFPERLGFCQHHDDEVLHLYCDTCSVPICRECTLGRHGGHSFAYLQDALQDSRALTIQLLADAQQGRQALQLSIEQAQTVAEQVEMKAKVVQSEVKAVTARHKKALEDRECELLWKVEKIRQVKAKSLFLQVEKLRQSLSKLESTISAVQQVLEEGRALDILLARDRMLAQVQELKTIRGLLQPQEDDRIMFTPPDQALYLALKSIGFVSSGAFAPLTKATGDGIKRALQGKVASFTVMGYDHDGEPRHSGGDLMSVVVLGPDGNLFGAEVSDQQNGTYIVSYRPQLEGEHLVSVTLYNQHIENSPFKVVVKSGRSYVGIGLPGLSFGSEGDGEGKLCRPWGVSVDKEGFIIVADRSNNRIQVFKPCGSFHHKFGTLGSRPGQFDRPAGVACDASRRIIVADKDNHRIQIFTFEGQFLLKFGEKGTKNGQFNYPWDVAVNSEGKILVSDTRNHRIQLFGPDGVFLNKYGFEGSLWKHFDSPRGVAFNNEGHLVVTDFNNHRLLVIHPDCQSARFLGSEGSGNGQFLRPQGVAVDQEGRIIVADSRNHRVQMFEANGSFLCKFGAQGSGFGQMDRPSGIAVTPDGLIVVVDFGNNRILIF
On to B6, for which the binding result is listed as “binds”.

B7: Gcdh (protein, UniProt Q60759 45-438)
chain: RPVFDWKDPLILEEQLTADEKLIRDTFRNYCQERLMSRILLANRNEVFHRDIVYEMGELGVLGPTIKGYGCAGVSSVAYGLLTRELERVDSGYRSMMSVQSSLVMHPIYTYGSEEQRQKYLPGLAKGELLGCFGLTEPNHGSDPGGMETRARHNPSNQSYTLSGTKTWITNSPVADLFIVWARCEDNCIRGFILEKGMRGLSAPRIEGKFSLRASATGMIIMDSVEVPEENVLPNVSSLAGPFGCLNTARYGITWGVLGAAEFCLHTARQYALDRIQFGVPLARNQLVQKKLADMLTEITLGLHACLQLGRLKDQDKATPEMVSMLKRNNCGKALDIARQARDILGGNGISDEYHVIRHAMNLEAVNTYEGTHDIHALILGRAITGIQAFTVGK
As for B7, the binding result is “binds”.

B8: Utf1 (protein, UniProt Q6J1H4 1-339)
chain: MLLRPRRLPAFSPPSPASPDAELRSAGDVPVTTSDAFATSGGMAEPGSPKAPVSPDSAQRTPWSARETELLLGTLLQPAMWRSLLLDRRQTLPTYRRVSAALARQQVRRTPAQCRRRYKFLKDKLRDSQGQPSGPFDNQIRQLMGLLGDDGPPRVRRRSTGPGRPQRRGRSSLSALAPAPAPVEQEAELPLAAENDEPAPALRFSSSTTKSAGAHRITSSPPLTSTDTLPPEPGHTFESSPTPTPDHDVETPNEPPGLSQGRASSPQVAPQSLNTALLQTLTHLGDISTVLGPLRDQLSTLNQHVEHLRGSFDQTVSLAVGFILGSAASERGILGDLRQ
Consider B8, for which the binding result is listed as “binds”.

B9: Sin3a (protein, UniProt Q60520 1-1274)
chain: MKRRLDDQESPVYAAQQRRIPGSTEAFSHQHRVLAPAPPVYEAVSETMQSATGIQYSVAPNYQVSAVPQSSGSHGPAIAAVHSSHHHPTAVQPHGGQVVQSHAHPAPPVAPVQGQQQFQRLKVEDALSYLDQVKLQFGSQPQVYNDFLDIMKEFKSQSIDTPGVISRVSQLFKGHPDLIMGFNTFLPPGYKIEVQTNDMVNVTTPGQVHQIPTHGIQPQPQPPPQHPSQPSSQSAPTPAQPAPQPTAAKVSKPSQLQAHTPASQQTPPLPPYASPRSPPVQPHTPVTISLGTAPSLQNNQPVEFNHAINYVNKIKNRFQGQPDIYKAFLEILHTYQKEQRNAKEAGGNYTPALTEQEVYAQVARLFKNQEDLLSEFGQFLPDANSSVLLSKTTAEKVDSVRNDHGGTVKKPQLNNKPQRPSQNGCQIRRHSGTGATPPVKKKPKLMSLKESSMADASKHGVGTESLFFDKVRKALRSAEAYENFLRCLVIFNQEVISRAELVQLVSPFLGKFPELFNWFKNFLGYKESVHLESFPKERATEGIAMEIDYASCKRLGSSYRALPKSYQQPKCTGRTPLCKEVLNDTWVSFPSWSEDSTFVSSKKTQYEEHIYRCEDERFELDVVLETNLATIRVLEAIQKKLSRLSAEEQAKFRLDNTLGGTSEVIHRKALQRIYADKAADIIDGLRKNPSIAVPIVLKRLKMKEEEWREAQRGFNKVWREQNEKYYLKSLDHQGINFKQNDTKVLRSKSLLNEIESIYDERQEQATEENAGVPVGPHLSLAYEDKQILEDAAALIIHHVKRQTGIQKEDKYKIKQIMHHFIPDLLFAQRGDLSDVEEEEEEEMDVDEATGAPKKHNGVGGSPPKSKLLFSNTAAQKLRGMDEVYNLFYVNNNWYIFMRLHQILCLRLLRICSQAERQIEEENREREWEREVLGIKRDKSDSPAIQLRLKEPMDVDVEDYYPAFLDMVRSLLDGNIDSSQYEDSLREMFTIHAYIAFTMDKLIQSIVRQLQHIVSDEVCVQVTDLYLAENNNGATGGQLNSQTSRSLLESAYQRKAEQLMSDENCFKLMFIQSQGQVQLTVELLDTEEENSDDPVEAERWSDYVERYMSSDTTSPELREHLAQKPVFLPRNLRRIRKCQRGREQQEKEGKEGNSKKTMENVESLDKLECRFKLNSYKMVYVIKSEDYMYRRTALLRAHQSHERVSKRLHQRFQAWVDKWTKEHVPREMAAETSKWLMGEGLEGLVPCTTTCDTETLHFVSINKYRVKYGTVFKAP
B9: the binding result is “binds”.

B10: Cdyl2 (protein, UniProt Q9D5D8 1-503)
chain: MASGDLYEVERIVDKRKNKKGKWEYLIRWKGYGSTEDTWEPEHHLLHCEEFIDEFNGLHLSKDKRVKSGKQAGASKLLRDARGLPVERLSHRPLEPGKSKPSSHKRKRVNSPLSRPKKGSSGKAPDRATKTVSYRTTPSGLQIMPLKKAQNGLENGDAGSEKDESHFGNGSHQPDLELNDQLGEQEASDCDGTHSALVENGVGSALTNGGLNLHSPVKRKLETEKDYVFDKRLRYSVRQNESNCRFRDIVVRKEEGFTHILLSSQTSDNNALTPEIMKEVRRALCNAATDDSKLLLLSAVGSVFCSGLDYSYLIGRLSSDRRKESTRIAEAIRDFVKAFIQFKKPIVVAINGPALGLGASILPLCDIVWASEKAWFQTPYATIRLTPAGCSSYTFPQILGVALANEMLFCGRKLTAQEACSRGLVSQVFWPTTFSQEVMLRVKEMASCSAVVLEESKCLVRSFLKSVLEEVNEKECVMLKQLWSSSKGLDSLFSYLQDKIYEV
For the molecule B10, the binding result was “binds”.
